Measurements: the supplement of paper PMC8728848
The list shows a part of the results.

Experiments:
Assay in all cases: glycan array binding signal (z-score within array); higher = stronger binding
Details in all cases: glycan notation: IUPAC condensed, linker removed
[1] = target: Gal3S(b1-4)Glc
How it was run: (§1)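 Arrays were curated from the Consortium for Functional Glycomics database, 3228 in total, and kept only where the protein sequence was available. Binding is expressed as a within-array Z-score. This score was averaged across arrays of the same protein sequence at different concentrations or buffers and across linkers, and negative values can be read as non-binding.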

[2] = target: Gal3S(b1-4)Glc6S
How it was run: as §1

[3] = target: Gal3S(b1-4)GlcNAc
How it was run: as §1

[4] = target: Gal3S(b1-4)[Fuc(a1-3)]Glc6S
How it was run: as §1

[5] = target: Gal3S(b1-4)[Fuc(a1-3)]GlcNAc
How it was run: as §1

[6] = target: Gal3S(b1-4)[Fuc(a1-3)]GlcNAc6S
How it was run: as §1

[7] = target: Gal3S4S(b1-4)GlcNAc
How it was run: as §1

[8] = target: Gal3S6S(b1-4)GlcNAc
How it was run: as §1

[9] = target: Gal3S6S(b1-4)GlcNAc6S
How it was run: as §1

[10] = target: Gal4S(b1-4)GlcNAc
How it was run: as §1

[11] = target: Gal4S6S(b1-4)GlcNAc
How it was run: as §1

[12] = target: Gal6P(b1-4)GlcNAc
How it was run: as §1

[13] = target: Gal6S(b1-3)GlcNAc
How it was run: as §1

[14] = target: Gal6S(b1-3)GlcNAc6S
How it was run: as §1

[15] = target: Gal6S(b1-4)Glc
How it was run: as §1

[16] = target: Gal6S(b1-4)Glc6S
How it was run: as §1

[17] = target: Gal6S(b1-4)GlcNAc
How it was run: as §1

[18] = target: Gal6S(b1-4)GlcNAc6S
How it was run: as §1

[19] = target: GalNAc(a1-3)Gal
How it was run: as §1

[20] = target: GalNAc(a1-3)GalNAc
How it was run: as §1

[21] = target: GalNAc(a1-3)GalNAc(a1-3)Gal(a1-4)Gal(b1-4)GlcNAc
How it was run: as §1

[22] = target: GalNAc(a1-3)GalNAc(b1-3)Gal(a1-4)Gal(b1-4)Glc
How it was run: as §1

[23] = target: GalNAc(b1-3)Gal
How it was run: as §1

[24] = target: GalNAc(b1-3)Gal(a1-4)Gal(b1-4)GlcNAc
How it was run: as §1

[25] = target: GalNAc(b1-3)Gal(a1-4)Gal(b1-4)GlcNAc(b1-3)Gal(b1-4)Glc
How it was run: as §1

[26] = target: GalNAc(b1-3)Gal(a1-6)Gal(b1-4)Glc
How it was run: as §1

[27] = target: GalNAc(b1-3)GalNAc
How it was run: as §1

[28] = target: GalNAc(b1-3)GlcNAc
How it was run: as §1

[29] = target: GalNAc(b1-4)Gal(b1-4)Glc
How it was run: as §1

[30] = target: GalNAc(b1-4)GlcNAc
How it was run: as §1

[31] = target: GalNAc(b1-4)GlcNAc(b1-2)Man
How it was run: as §1

[32] = target: GalNAc(b1-4)GlcNAc(b1-2)Man(a1-3)[GalNAc(b1-4)GlcNAc(b1-2)Man(a1-6)]Man(b1-4)GlcNAc(b1-4)GlcNAc
How it was run: as §1

[33] = target: GalNAc(b1-4)GlcNAc(b1-3)GalNAc(b1-4)GlcNAc
How it was run: as §1

[34] = target: GalNAc(b1-4)GlcNAc6S
How it was run: as §1

[35] = target: GalNAc(b1-6)GalNAc
How it was run: as §1

[36] = target: GalNAc3S(b1-4)GlcNAc
How it was run: as §1

[37] = target: GalNAc3S(b1-4)GlcNAc3S
How it was run: as §1

[38] = target: GalNAc3S(b1-4)[Fuc(a1-3)]GlcNAc
How it was run: as §1

[39] = target: GalNAc4S6S(b1-4)GlcNAc
How it was run: as §1

[40] = target: GalNAc6S(b1-4)GlcNAc
How it was run: as §1

[41] = target: Glc(a1-4)Glc
How it was run: as §1

[42] = target: Glc(a1-4)Glc(a1-4)Glc(a1-4)Glc
How it was run: as §1

[43] = target: Glc(a1-6)Glc(a1-6)Glc
How it was run: as §1

[44] = target: Glc(a1-6)Glc(a1-6)Glc(a1-6)Glc
How it was run: as §1

[45] = target: Glc(b1-4)Glc
How it was run: as §1

[46] = target: Glc(b1-6)Glc
How it was run: as §1

[47] = target: GlcA(b1-3)Gal
How it was run: as §1

[48] = target: GlcA(b1-3)GlcNAc
How it was run: as §1

[49] = target: GlcA(b1-6)Gal
How it was run: as §1

[50] = target: GlcA3S(b1-3)Gal(b1-4)GlcNAc(b1-2)Man
How it was run: as §1

[51] = target: GlcA3S(b1-3)Gal(b1-4)GlcNAc(b1-3)Gal(b1-4)Glc
How it was run: as §1

[52] = target: GlcNAc(a1-3)Gal(b1-4)GlcNAc
How it was run: as §1

[53] = target: GlcNAc(a1-4)Gal(b1-3)GlcNAc
How it was run: as §1

[54] = target: GlcNAc(a1-4)Gal(b1-4)GalNAc
How it was run: as §1

[55] = target: GlcNAc(a1-4)Gal(b1-4)GlcNAc
How it was run: as §1

[56] = target: GlcNAc(a1-4)Gal(b1-4)GlcNAc(b1-3)Gal(b1-4)Glc
How it was run: as §1

[57] = target: GlcNAc(a1-4)Gal(b1-4)GlcNAc(b1-3)Gal(b1-4)GlcNAc
How it was run: as §1

[58] = target: GlcNAc(a1-4)Gal(b1-4)GlcNAc(b1-3)Gal(b1-4)GlcNAc(b1-3)Gal(b1-4)GlcNAc
How it was run: as §1

[59] = target: GlcNAc(a1-4)Gal(b1-4)GlcNAc(b1-3)Gal(b1-4)[Fuc(a1-3)]GlcNAc(b1-3)Gal(b1-4)[Fuc(a1-3)]GlcNAc
How it was run: as §1

[60] = target: GlcNAc(a1-6)Gal(b1-4)GlcNAc
How it was run: as §1

B1: Protein L(A-C2) (Finegoldia magna), Q51912 (protein)
chain: ADEPIDLEKLEEKRDKENVGNLPKFDNEVKDGSENPMAKYPDFDDEASTRFETENNEFEEKKVVSDNFFDQSEHPFVENKEETPETPETDSEEEVTIKANLIFANGSTQTAEFKGTFEKATSEAYAYADTLKKDNGEYTVDVADKGYTLNIKFAGKEKTPEEPKEEVTIKANLIYADGKTQTAEFKGTFEEATAEAYRYADALKKDNGEYTVDVADKGYTLNIKFAGKEKTPEEPKEEVTIKANLIYADGKTQTAEFKGTFEEATAEAYRYADLLAKENGKYTVDVADKGYTLNIKFAGKEKTPEEPKEEVTIKANLIYADGKTQTAEFKGTFAEATAEAYRYADLLAKENGKYTADLEDGGYTINIRFAGKKVDEKPEEKEQVTIKENIYFEDGTVQTATFKGTFAEATAEAYRYADLLSKEHGKYTADLEDGGYTINIRFAGKEEPEETPEKPEVQDGYASYEEAEAAAKEALKNDDVNKSYTIRQGADGRYYYVLSPVEAEEEKPEAQNGYATYEEAEAAAKKALENDPINKSYSIRQGADGRYYYVLSPVEAE
With B1 as the binder, how does the “glycan array binding signal (z-score)” value [1] read?
The value was -0.458.

What about the “glycan array binding signal (z-score)” value [2] of the same binder?
Its value is 0.567.

What about the “glycan array binding signal (z-score)” value [3] of the same binder?
The value was -0.821.

What about the “glycan array binding signal (z-score)” value [4] of the same binder?
Its value is 1.96.

What about the “glycan array binding signal (z-score)” value [5] of the same binder?
The value was 0.054.

And the “glycan array binding signal (z-score)” value [6]?
The value was -0.503.

And the “glycan array binding signal (z-score)” value [7]?
Its value is -0.721.

And the “glycan array binding signal (z-score)” value [8]?
Its value is -0.128.

And the “glycan array binding signal (z-score)” value [9]?
Its value is -0.311.

What about the “glycan array binding signal (z-score)” value [10] of the same binder?
Its value is -0.492.

What about the “glycan array binding signal (z-score)” value [11] of the same binder?
The value was -0.203.

And the “glycan array binding signal (z-score)” value [12]?
The value was -0.824.

What about the “glycan array binding signal (z-score)” value [13] of the same binder?
The value was -1.06.

And the “glycan array binding signal (z-score)” value [14]?
Its value is -0.561.

And the “glycan array binding signal (z-score)” value [15]?
The value was -0.354.

And the “glycan array binding signal (z-score)” value [16]?
Its value is 1.75.

What about the “glycan array binding signal (z-score)” value [17] of the same binder?
The value was -0.893.

And the “glycan array binding signal (z-score)” value [18]?
Its value is -0.607.

What about the “glycan array binding signal (z-score)” value [19] of the same binder?
Its value is -0.664.

What about the “glycan array binding signal (z-score)” value [20] of the same binder?
The value was -0.445.

What about the “glycan array binding signal (z-score)” value [21] of the same binder?
The value was -1.15.

And the “glycan array binding signal (z-score)” value [22]?
The value was 0.108.

What about the “glycan array binding signal (z-score)” value [23] of the same binder?
The value was -0.354.

And the “glycan array binding signal (z-score)” value [24]?
Its value is -0.837.

And the “glycan array binding signal (z-score)” value [25]?
The value was 0.127.

And the “glycan array binding signal (z-score)” value [26]?
The value was -0.834.

What about the “glycan array binding signal (z-score)” value [27] of the same binder?
The value was -0.192.

And the “glycan array binding signal (z-score)” value [28]?
The value was -0.41.

And the “glycan array binding signal (z-score)” value [29]?
The value was -0.271.

And the “glycan array binding signal (z-score)” value [30]?
The value was -0.004.

And the “glycan array binding signal (z-score)” value [31]?
Its value is -0.161.

And the “glycan array binding signal (z-score)” value [32]?
Its value is 1.78.

And the “glycan array binding signal (z-score)” value [33]?
The value was -0.888.

What about the “glycan array binding signal (z-score)” value [34] of the same binder?
Its value is -1.08.

And the “glycan array binding signal (z-score)” value [35]?
The value was -0.685.

And the “glycan array binding signal (z-score)” value [36]?
Its value is -0.166.

What about the “glycan array binding signal (z-score)” value [37] of the same binder?
The value was -0.544.

What about the “glycan array binding signal (z-score)” value [38] of the same binder?
Its value is 0.683.

What about the “glycan array binding signal (z-score)” value [39] of the same binder?
Its value is -0.803.

What about the “glycan array binding signal (z-score)” value [40] of the same binder?
Its value is -0.775.

And the “glycan array binding signal (z-score)” value [41]?
The value was -0.316.

What about the “glycan array binding signal (z-score)” value [42] of the same binder?
Its value is 0.546.

What about the “glycan array binding signal (z-score)” value [43] of the same binder?
Its value is -1.06.

What about the “glycan array binding signal (z-score)” value [44] of the same binder?
The value was 0.057.

And the “glycan array binding signal (z-score)” value [45]?
The value was 0.308.

What about the “glycan array binding signal (z-score)” value [46] of the same binder?
The value was -0.685.

What about the “glycan array binding signal (z-score)” value [47] of the same binder?
Its value is -0.562.

And the “glycan array binding signal (z-score)” value [48]?
Its value is -0.343.

And the “glycan array binding signal (z-score)” value [49]?
The value was -0.08.

And the “glycan array binding signal (z-score)” value [50]?
Its value is -0.286.

And the “glycan array binding signal (z-score)” value [51]?
The value was -0.644.

What about the “glycan array binding signal (z-score)” value [52] of the same binder?
Its value is -0.967.

What about the “glycan array binding signal (z-score)” value [53] of the same binder?
Its value is -0.776.

And the “glycan array binding signal (z-score)” value [54]?
The value was 0.693.

What about the “glycan array binding signal (z-score)” value [55] of the same binder?
Its value is -0.918.

And the “glycan array binding signal (z-score)” value [56]?
Its value is -0.042.

And the “glycan array binding signal (z-score)” value [57]?
The value was -0.652.

And the “glycan array binding signal (z-score)” value [58]?
Its value is -0.507.

What about the “glycan array binding signal (z-score)” value [59] of the same binder?
Its value is 0.36.

What about the “glycan array binding signal (z-score)” value [60] of the same binder?
Its value is -0.792.
